Record: PubChem BioAssay AID504774 (Drosophila RNAi Screening Center, 2011)
Test: 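Genes required for cells to withstand methyl methanesulphonate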 (primary screen). Cells: Drosophila Kc167 cells. Reagents: long dsRNA against Drosophila genes, about 0.25 µg dsRNA per well. Duration: about 6 days: 3 days knock-down, then 3 days with or without MMS. Conditions: methyl methanesulphonate 0.004% (w/v) for 3 days after knock-down. Read-out: 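Viability in wells given MMS, read as ATP luminescence, normalised by quantiles plate by plate and averaged across replicates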. Scale: mean viability with MMS: higher = more surviving cells after MMS.
The screen tested about 23,000 reagents; below is a random part of those with a known target gene and a result. 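Values are quantile-normalised luminescence on an arbitrary scale; higher means more cells surviving MMS.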 Names joined by + are all predicted targets of the reagent. Further read-outs or replicates are left out here.

With knock-down of Shc (SHC-adaptor protein) [DRSC11284], the record shows mean viability with MMS 3.47e6. After knock-down of cno (canoe) [DRSC12054], the record shows mean viability with MMS 3.62e6. Depletion of cno (canoe) [DRSC12374] came out at: mean viability with MMS 2.86e6. cno (canoe) [DRSC22980] scored mean viability with MMS 3.32e6. PIG-H + Kmn2 [DRSC12653] gave mean viability with MMS 3.42e6. Knock-down of CG42755 (retired record) [DRSC09105] resulted in: mean viability with MMS 3.68e6.

With knock-down of CG42755 (retired record) [DRSC09106], the record shows mean viability with MMS 3.67e6. CG6996 [DRSC10758] showed mean viability with MMS 3.40e6. ng4 (new glue 4) [DRSC18805] scored mean viability with MMS 3.63e6. Silencing of CG32643 [DRSC18962] came out at: mean viability with MMS 3.47e6. Knock-down of Cp38 (Chorion protein 38) [DRSC18453] gave: mean viability with MMS 3.47e6. Against CG9632 [DRSC16528], the values are mean viability with MMS 3.43e6.

CG40583 (retired record) [DRSC20938] gave mean viability with MMS 2.30e6. With knock-down of Cdc16 (Cell division cycle 16) [DRSC16920], the screen gave mean viability with MMS 3.41e6. With knock-down of CG18765 [DRSC15392] the results were mean viability with MMS 3.62e6. Depletion of MED4 (Mediator complex subunit 4) [DRSC11014] resulted in: mean viability with MMS 3.28e6. After knock-down of Prosalpha1R + Prosalpha1 [DRSC07515] the results were mean viability with MMS 3.29e6. With knock-down of MED26 (Mediator complex subunit 26) [DRSC17126], the screen gave mean viability with MMS 3.00e6.

For MED26 (Mediator complex subunit 26) [DRSC17147] the deposit lists mean viability with MMS 2.83e6. MED26 (Mediator complex subunit 26) [DRSC17148] showed mean viability with MMS 2.73e6.

No new results follow: 4 of the entries above.
CG42755 (retired record) [DRSC09105] — mean viability with MMS: 3.68e6
CG42755 (retired record) [DRSC09106] — mean viability with MMS: 3.67e6
CG6996 [DRSC10758] — mean viability with MMS: 3.40e6
ng4 (new glue 4) [DRSC18805] — mean viability with MMS: 3.63e6

Additional entries:
Vlet (Valette) [DRSC19845] scored mean viability with MMS 3.51e6. Knock-down of Paf-AHalpha (Platelet-activating factor acetylhydrolase alpha) [DRSC20267] resulted in: mean viability with MMS 3.51e6. With knock-down of Gp150 [DRSC04618], the screen gave mean viability with MMS 3.37e6. For CG31029 [DRSC15422], the entry reads mean viability with MMS 3.28e6. With knock-down of CG15356 [DRSC00386] the results were mean viability with MMS 3.39e6. With knock-down of beat-Ic (beaten path Ic) [DRSC01524], the screen gave mean viability with MMS 3.65e6.

beat-Ic (beaten path Ic) [DRSC03491] showed mean viability with MMS 3.40e6. Knock-down of CG32333 [DRSC08627] came out at: mean viability with MMS 3.67e6. CG32333 [DRSC08629] showed mean viability with MMS 3.43e6. With knock-down of PolE4 (DNA polymerase epsilon subunit 4) [DRSC04105], the record shows mean viability with MMS 3.52e6. For CG13042 [DRSC09923], the entry reads mean viability with MMS 3.55e6. With knock-down of CG14301 [DRSC14780], the record shows mean viability with MMS 3.57e6.

Against CG42342 [DRSC13165], the values are mean viability with MMS 3.65e6. Knock-down of CG42342 [DRSC14378] gave: mean viability with MMS 8.84e5. CG42342 [DRSC15010] showed mean viability with MMS 3.66e6. CG42342 [DRSC15011] scored mean viability with MMS 3.55e6. After knock-down of CG42342 [DRSC15012], the record shows mean viability with MMS 3.47e6. Against CG42342 [DRSC21791], the values are mean viability with MMS 3.56e6.

Against CG42342 [DRSC22861], the entry reads mean viability with MMS 3.39e6. Against CG42342 [DRSC23112], the values are mean viability with MMS 3.59e6.
